Paper PMC11865524
These are yes or no findings as the source states them, for the method shown. In cells and extracts the contact can be indirect. For part of these data: Binding calls can cover weak binding; strength is not graded here.

Chains of the proteins cited; added tags and fusions are not shown. Lines headed by an entry give the natural chain unless they say otherwise; changes in a name come on top.
UniProt P17676: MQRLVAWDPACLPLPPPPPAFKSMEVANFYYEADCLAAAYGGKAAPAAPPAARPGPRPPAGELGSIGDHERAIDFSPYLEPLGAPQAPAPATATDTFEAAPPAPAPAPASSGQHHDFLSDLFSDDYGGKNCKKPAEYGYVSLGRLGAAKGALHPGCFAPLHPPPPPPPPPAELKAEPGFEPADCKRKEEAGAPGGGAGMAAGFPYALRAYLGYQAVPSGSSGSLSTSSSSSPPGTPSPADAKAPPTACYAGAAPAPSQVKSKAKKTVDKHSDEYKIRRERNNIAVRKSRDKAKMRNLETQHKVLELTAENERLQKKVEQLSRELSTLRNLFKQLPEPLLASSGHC
UniProt P20823: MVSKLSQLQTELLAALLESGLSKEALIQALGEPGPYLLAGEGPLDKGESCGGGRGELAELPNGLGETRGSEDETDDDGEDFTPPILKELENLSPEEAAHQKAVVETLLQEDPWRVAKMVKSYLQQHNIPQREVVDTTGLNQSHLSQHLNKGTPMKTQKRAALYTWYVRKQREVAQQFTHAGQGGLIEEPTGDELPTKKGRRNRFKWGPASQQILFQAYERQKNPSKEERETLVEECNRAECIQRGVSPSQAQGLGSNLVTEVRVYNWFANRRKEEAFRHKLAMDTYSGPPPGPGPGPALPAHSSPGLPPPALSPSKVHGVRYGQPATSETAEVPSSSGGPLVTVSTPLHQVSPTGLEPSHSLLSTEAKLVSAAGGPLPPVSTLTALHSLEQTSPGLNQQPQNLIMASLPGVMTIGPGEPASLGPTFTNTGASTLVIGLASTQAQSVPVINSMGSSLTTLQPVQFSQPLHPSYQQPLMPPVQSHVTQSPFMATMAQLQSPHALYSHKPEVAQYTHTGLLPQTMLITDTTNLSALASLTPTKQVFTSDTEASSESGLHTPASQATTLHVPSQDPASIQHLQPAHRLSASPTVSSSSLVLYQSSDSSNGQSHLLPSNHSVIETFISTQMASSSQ
UniProt P29034: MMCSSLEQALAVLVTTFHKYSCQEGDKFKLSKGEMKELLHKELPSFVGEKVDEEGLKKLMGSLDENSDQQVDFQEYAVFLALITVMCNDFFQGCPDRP

Tests used:
Assay in all cases: co-IP; exogenous tagged proteins in HEK293T cells; lysate rotated with Anti-FLAG M2 or Anti-HA magnetic beads overnight at 4 °C, washed, immunoblot
ETS1 = target: T1, ETS1 (UniProt P14921)
T1 sequence: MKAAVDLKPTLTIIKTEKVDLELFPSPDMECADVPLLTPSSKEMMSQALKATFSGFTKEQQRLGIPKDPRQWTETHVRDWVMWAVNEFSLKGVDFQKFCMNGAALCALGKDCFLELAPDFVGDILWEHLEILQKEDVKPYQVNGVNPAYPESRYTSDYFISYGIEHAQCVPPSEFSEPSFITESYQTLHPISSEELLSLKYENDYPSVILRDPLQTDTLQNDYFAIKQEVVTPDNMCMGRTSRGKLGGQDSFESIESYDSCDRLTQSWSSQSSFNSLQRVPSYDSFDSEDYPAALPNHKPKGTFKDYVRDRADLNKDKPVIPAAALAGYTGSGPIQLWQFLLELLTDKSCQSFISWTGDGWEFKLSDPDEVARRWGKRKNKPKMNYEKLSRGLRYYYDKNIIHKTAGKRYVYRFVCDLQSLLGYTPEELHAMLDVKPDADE

CEBPB = CEBPB (UniProt P17676)
[1] = target: HA-tagged HNF1A with the full-length sequence (UniProt P20823)

With “FLAG-tagged S100A2 (from UniProt P29034)” the binding (ETS1) was “no binding”, the binding (CEBPB) was “no binding” and the binding [1] was “binds”.
